Literature values in patent EP1658844A1, “Use of artemisinin derivatives in the manufacture of a medicament for the treatment of melanoma” (Schuler, Gerold, priority 2004, dated 2006).
At least one structure is not confirmed: it was looked up by name or label, or the drawing left a doubt.

Experiments:
[1] = tested on: advanced cutaneous melanoma; conditions: cited from earlier work
uveal melanoma = conditions: cited from earlier work
nucleic acid synthesis = conditions: cited from earlier work
[2] = tested on: molt-4 human lymphoblastoid cells; conditions: combined incubation with holotransferrin; cited from earlier work

Compound	overall response rates [1]	response rates (uveal melanoma)	activity relative to artemisinin in ability to inhibit nucleic acid synthesis (nucleic acid synthesis) [times]	cell counts [2]
CN(C)/N=N/c1[nH]cnc1C(N)=O [Dacarbazine]	about 15%	under 1%	–	–
CO[C@H]1O[C@@H]2O[C@@]3(C)CC[C@H]4[C@H](C)CC[C@@H]([C@H]1C)[C@@]24OO3 [artemether]	–	–	100	–
C[C@H]1[C@@H](O)O[C@@H]2O[C@@]3(C)CC[C@H]4[C@H](C)CC[C@@H]1[C@@]24OO3 [dihydroartemisinin]	–	–	100	Dose-dependent decrease of cell counts
